Data as given in PubChem BioAssay AID1159584 (Peter MacCallum Cancer Centre, 2016).

Assay: 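Genes whose loss is lethal only together with E-cadherin loss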 (primary screen)
System: human MCF10A breast epithelial cells, parental and CDH1-null
Knock-down reagent: siRNA against human genes
Measurement: 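Cell viability by CellTiter-Glo ATP luminescence, each line scaled to the mean of mock wells across plates, then CDH1-null over parental ratio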
Direction: CDH1-null / parental viability ratio: higher = CDH1-null cells survive relatively better than parental
Here is a random part of about 18,000 deposited reagents. Not all columns of the deposit are shown. No sequences are given here. Not stated in the record: the amount of reagent, the time to read-out.

CCL7: CDH1-null / parental viability ratio = 0.84
VEGFD: CDH1-null / parental viability ratio = 1
IL36B: CDH1-null / parental viability ratio = 0.73
RFT1: CDH1-null / parental viability ratio = 1.2
ITIH6: CDH1-null / parental viability ratio = 1.11
NOL4: CDH1-null / parental viability ratio = 1.14
CCDC167: CDH1-null / parental viability ratio = 1.06
SBF2: CDH1-null / parental viability ratio = 0.96
MAGEA2B: CDH1-null / parental viability ratio = 1.03
SPZ1: CDH1-null / parental viability ratio = 0.86
ALG10: CDH1-null / parental viability ratio = 1.03
PAK2: CDH1-null / parental viability ratio = 0.85
CCZ1: CDH1-null / parental viability ratio = 1.09
FBXO48: CDH1-null / parental viability ratio = 1.13
CORO1B: CDH1-null / parental viability ratio = 0.81
PKHD1L1: CDH1-null / parental viability ratio = 0.91
NAF1: CDH1-null / parental viability ratio = 0.97
CCDC85A: CDH1-null / parental viability ratio = 1.01
PSRC1: CDH1-null / parental viability ratio = 1.04
INHBA: CDH1-null / parental viability ratio = 0.84
SLAMF8: CDH1-null / parental viability ratio = 1.04
TMEM131L: CDH1-null / parental viability ratio = 1.11
HAPLN4: CDH1-null / parental viability ratio = 0.96
SETD5: CDH1-null / parental viability ratio = 1.29
SFRP5: CDH1-null / parental viability ratio = 0.95
MED17: CDH1-null / parental viability ratio = 1.07
CSF3R: CDH1-null / parental viability ratio = 0.91
IL16: CDH1-null / parental viability ratio = 1.08
PRPSAP2: CDH1-null / parental viability ratio = 0.99
CTCF: CDH1-null / parental viability ratio = 1.25
UBE2J2: CDH1-null / parental viability ratio = 1.12
TKTL2: CDH1-null / parental viability ratio = 0.97
TBX2: CDH1-null / parental viability ratio = 1.03
UPK3A: CDH1-null / parental viability ratio = 0.62
SUCLA2: CDH1-null / parental viability ratio = 1.2

4 of these entries, set out differently:
| Target gene | CDH1-null / parental viability ratio |
| --- | --- |
| HAPLN4 | 0.96 |
| SETD5 | 1.29 |
| SFRP5 | 0.95 |
| MED17 | 1.07 |
